Reference: publication PMC7090148 (2020)
No constants are given. Whether binding was seen depends on the method and setting. Binding seen in cells or lysates may run through a third protein. Some binding calls cover weakened binding; strength is not graded here. Tags and fused reporters may be left off the sequences shown.

Columns and labels:
[1] = molecular target: T1, Myc-tagged OFD1 (oral-facial-digital syndrome 1), full length (human) (UniProt O75665); test: co-IP; NTAP-TRAPPC8 and NTAP-TRAPPC12 co-expressed together with Myc-OFD1 to allow competition of binding; Myc-OFD1 pulled down; immunoblot
T1 sequence: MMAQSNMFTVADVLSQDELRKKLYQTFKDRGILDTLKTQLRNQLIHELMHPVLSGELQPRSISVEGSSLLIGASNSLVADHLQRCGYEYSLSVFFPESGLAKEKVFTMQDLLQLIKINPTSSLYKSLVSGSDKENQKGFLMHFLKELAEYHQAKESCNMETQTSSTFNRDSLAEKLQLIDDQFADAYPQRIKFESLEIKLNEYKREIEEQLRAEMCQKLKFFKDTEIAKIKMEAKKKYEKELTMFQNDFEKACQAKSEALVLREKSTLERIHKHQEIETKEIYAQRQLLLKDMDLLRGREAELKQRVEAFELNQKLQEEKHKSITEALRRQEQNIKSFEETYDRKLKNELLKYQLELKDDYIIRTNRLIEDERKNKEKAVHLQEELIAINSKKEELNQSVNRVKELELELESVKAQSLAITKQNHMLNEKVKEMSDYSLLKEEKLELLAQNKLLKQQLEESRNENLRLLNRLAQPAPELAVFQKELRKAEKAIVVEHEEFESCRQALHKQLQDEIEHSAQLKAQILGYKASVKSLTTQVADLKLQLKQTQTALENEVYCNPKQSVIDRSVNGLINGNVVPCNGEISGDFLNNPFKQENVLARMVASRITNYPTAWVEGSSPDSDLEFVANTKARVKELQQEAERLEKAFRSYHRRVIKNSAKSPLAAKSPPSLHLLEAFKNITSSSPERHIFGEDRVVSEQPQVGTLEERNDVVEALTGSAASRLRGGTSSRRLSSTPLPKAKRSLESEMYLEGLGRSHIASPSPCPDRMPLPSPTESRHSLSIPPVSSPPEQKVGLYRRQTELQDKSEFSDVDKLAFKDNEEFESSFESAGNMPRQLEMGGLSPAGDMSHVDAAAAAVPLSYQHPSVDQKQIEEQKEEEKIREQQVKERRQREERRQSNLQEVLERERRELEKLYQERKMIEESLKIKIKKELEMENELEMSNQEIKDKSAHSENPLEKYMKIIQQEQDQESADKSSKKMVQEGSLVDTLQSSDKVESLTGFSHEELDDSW

Mouse OFD1 A80T (mouse) = molecular target: T2, Mouse OFD1 A80T (mouse) (UniProt Q80Z25); test: co-IP; OFD1 mutants co-expressed with TRAPPC8 or TRAPPC12; IP efficiency as ratio of immunoprecipitated TRAPPC8/OFD1 or TRAPPC12/OFD1; cell line and IP antibody not stated for this panel
T2 sequence: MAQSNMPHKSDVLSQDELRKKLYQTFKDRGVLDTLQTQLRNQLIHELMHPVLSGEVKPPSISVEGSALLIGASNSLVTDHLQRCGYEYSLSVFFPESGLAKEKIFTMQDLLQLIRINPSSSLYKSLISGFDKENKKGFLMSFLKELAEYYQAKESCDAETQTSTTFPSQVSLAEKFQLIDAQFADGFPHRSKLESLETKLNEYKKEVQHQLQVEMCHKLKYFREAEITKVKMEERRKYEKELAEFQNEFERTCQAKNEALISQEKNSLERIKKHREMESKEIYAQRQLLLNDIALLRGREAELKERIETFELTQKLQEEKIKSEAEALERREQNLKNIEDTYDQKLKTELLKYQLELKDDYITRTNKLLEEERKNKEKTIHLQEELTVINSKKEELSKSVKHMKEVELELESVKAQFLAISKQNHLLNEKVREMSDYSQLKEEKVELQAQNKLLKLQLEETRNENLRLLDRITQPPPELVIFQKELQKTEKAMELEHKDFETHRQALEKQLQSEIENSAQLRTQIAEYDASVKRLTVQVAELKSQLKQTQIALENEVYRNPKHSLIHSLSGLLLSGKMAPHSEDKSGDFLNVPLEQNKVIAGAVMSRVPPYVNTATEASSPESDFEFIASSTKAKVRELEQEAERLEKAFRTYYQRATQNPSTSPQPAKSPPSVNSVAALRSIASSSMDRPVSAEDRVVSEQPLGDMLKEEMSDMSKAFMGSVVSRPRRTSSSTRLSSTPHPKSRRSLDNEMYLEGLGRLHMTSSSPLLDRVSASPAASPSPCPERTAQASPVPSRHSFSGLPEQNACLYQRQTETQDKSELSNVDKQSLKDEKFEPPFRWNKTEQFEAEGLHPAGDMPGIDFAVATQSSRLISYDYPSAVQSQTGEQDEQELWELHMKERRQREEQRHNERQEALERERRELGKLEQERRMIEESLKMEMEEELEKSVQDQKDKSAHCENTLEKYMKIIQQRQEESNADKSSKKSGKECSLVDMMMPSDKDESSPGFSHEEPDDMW

[2] = molecular target: T1, Myc-tagged OFD1 (oral-facial-digital syndrome 1), full length (human); test: co-IP; Myc-OFD1 (full length or truncations) co-transfected with NTAP-TRAPPC8 or NTAP-TRAPPC12 in HEK293T cells (wild type; also TRAPPC12-/- for TRAPPC8 and TRAPPC8-/- for TRAPPC12); lysate in RIPA buffer (20 mM Tris pH 8.0, 100 mM NaCl, 0.1% NP-40); IP with anti-Myc antibody and protein A-sepharose, 4°C overnight; immunoblot
[3] = molecular target: T3, Myc-tagged OFD1 N-terminal region (residues 1-192), including the LisH motif (not stated (human or mouse cDNA cloned)) (UniProt O75665); test: as above
T3 sequence: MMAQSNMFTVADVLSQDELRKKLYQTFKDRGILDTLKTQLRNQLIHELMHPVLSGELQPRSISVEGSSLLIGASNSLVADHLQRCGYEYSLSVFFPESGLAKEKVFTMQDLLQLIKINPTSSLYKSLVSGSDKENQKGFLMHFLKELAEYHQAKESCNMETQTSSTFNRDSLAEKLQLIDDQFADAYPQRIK

Measured: binding

B1: NTAP-tagged TRAPPC12 (protein, UniProt Q8K2L8 1-797)
chain: METAKDGEQSPSEASPSAQAGPENIPEPMSREEESQPLYHEETIDLGGDEFASEENEPTSEGSHNFGDKLNEHMMESVLISDSPNNSEGDVGDLGCLQDVGEPPRGATDHRLPSSTDKEVVDTLSNGSETDGDDTPRDISDMTPDSRASLKEDSTQEDVTSMPALENAATEEVGPKDSLAPREEQTSEVSSNQSSSKDEPLPVCTIFSQATATPSQPHLFLQDGFESQMVKSPSFSSTSETSAKTPPPMVQPSPSLSTFFGDTMSSNSLASDFFDSFTTSTFISVSNPNAGSPVPEKLSSLTAPVGEKSPDSTSPSYSTRMDRSESGVSRAPLDVPESPKPFSQIQAVFAGSDDPFATALSMSEMDRRNDAWLPSQATREVLMSVATQQYGTVFIDKENLTMPGLKFDNIQGDAVKDLMLRFLGEKAAAKRQVLNASSVEQSFVGLKQLISCRNWRAAVDLCGRLLTAHGQGYGKNGLPTSHTTDSLQLWFVRLALLVKLGLFQNAEMEFEPFGNLDQPDLYYEYYPHVYPGRRGSMVPFSMRILHAELQQYLGNPQESLDRLHRVKTVCSKILANLEQGLAEDGGLSSVTQESRQASVQLWRSRLGRVLYSMANCLLLMKDYVLAVDAYLTVIKYYPEQEPQLLSGIGRILLQIGDIKTAEKYFQDVEKVTQKLDGLQGKIMVLMNRAFLYLGQNNFAEAHKFFTEILRMDPTNAVANNNAAVCLLYLGKLKDSLRQLEAMVQQDPRHYLHESVLFNLTTMYELESSRSMQKKQSLLEAVASKEGDSFNTQCLKLA
binds: all assays above
